This note sets out measurements from patent publication US20240209009 (published 2024).

Data set [1] can be described thus: general procedure: Fmoc solid-phase peptide synthesis; 2-Chlorotrityl chloride resin. Conditions: whole synthesis, TFA salt.
The nature of data set [2]: general procedure: Fmoc solid-phase peptide synthesis.

In the case of Thr-Lys-Pro-Arg-Gly-Tyr-PC, the crude yield in data set [1] amounted to 63%. Further, the difficulty met result in data set [2] (conjugation step, TFA salt) is given as “this synthetic approach results in very low yield”. Besides, the “crude purity (method not given)” value in data set [2] (whole synthesis, TFA salt) worked out at 88%. The isolated yield in data set [2] (whole synthesis, from compound 10, TFA salt) was 51% from 10%.
